Here are results for 15 targets from the supplement of paper PMC11006884.

Chains of the proteins cited; added tags and fusions are not shown. Lines headed by an entry give the natural chain unless they say otherwise; changes in a name come on top.
UniProt Q00839, whole entry, looked up: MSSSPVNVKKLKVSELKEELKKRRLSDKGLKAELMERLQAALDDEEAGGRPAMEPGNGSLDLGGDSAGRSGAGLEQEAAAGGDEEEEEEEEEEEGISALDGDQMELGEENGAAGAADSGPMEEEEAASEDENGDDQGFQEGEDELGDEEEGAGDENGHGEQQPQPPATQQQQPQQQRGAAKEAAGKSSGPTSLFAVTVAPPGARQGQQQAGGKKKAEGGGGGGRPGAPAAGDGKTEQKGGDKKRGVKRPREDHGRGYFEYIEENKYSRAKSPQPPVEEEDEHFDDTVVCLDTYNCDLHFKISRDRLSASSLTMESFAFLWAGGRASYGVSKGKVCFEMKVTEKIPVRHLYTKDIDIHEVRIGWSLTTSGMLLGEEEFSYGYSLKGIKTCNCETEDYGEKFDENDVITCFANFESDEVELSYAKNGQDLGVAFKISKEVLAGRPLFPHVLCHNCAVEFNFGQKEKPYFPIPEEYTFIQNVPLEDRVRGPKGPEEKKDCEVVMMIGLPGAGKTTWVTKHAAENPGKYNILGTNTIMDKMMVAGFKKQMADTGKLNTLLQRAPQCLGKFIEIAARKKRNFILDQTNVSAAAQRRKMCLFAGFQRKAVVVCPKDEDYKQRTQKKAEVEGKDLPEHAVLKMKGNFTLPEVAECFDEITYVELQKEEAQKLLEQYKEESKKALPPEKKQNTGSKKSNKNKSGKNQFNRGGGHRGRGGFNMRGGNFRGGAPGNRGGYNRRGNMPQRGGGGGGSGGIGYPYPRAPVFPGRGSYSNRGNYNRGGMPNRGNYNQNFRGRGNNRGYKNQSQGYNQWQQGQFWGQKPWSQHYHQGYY
UniProt P78368: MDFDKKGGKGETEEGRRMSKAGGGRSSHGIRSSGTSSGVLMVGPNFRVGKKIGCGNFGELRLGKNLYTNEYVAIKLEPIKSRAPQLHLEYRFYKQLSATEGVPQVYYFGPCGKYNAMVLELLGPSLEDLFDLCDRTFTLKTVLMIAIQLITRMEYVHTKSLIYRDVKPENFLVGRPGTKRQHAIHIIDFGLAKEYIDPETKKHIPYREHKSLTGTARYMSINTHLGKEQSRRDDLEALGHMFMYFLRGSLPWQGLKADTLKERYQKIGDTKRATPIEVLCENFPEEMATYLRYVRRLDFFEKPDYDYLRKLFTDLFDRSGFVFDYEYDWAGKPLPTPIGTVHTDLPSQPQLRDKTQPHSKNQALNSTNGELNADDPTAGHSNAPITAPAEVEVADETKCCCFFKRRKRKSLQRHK
UniProt Q00341: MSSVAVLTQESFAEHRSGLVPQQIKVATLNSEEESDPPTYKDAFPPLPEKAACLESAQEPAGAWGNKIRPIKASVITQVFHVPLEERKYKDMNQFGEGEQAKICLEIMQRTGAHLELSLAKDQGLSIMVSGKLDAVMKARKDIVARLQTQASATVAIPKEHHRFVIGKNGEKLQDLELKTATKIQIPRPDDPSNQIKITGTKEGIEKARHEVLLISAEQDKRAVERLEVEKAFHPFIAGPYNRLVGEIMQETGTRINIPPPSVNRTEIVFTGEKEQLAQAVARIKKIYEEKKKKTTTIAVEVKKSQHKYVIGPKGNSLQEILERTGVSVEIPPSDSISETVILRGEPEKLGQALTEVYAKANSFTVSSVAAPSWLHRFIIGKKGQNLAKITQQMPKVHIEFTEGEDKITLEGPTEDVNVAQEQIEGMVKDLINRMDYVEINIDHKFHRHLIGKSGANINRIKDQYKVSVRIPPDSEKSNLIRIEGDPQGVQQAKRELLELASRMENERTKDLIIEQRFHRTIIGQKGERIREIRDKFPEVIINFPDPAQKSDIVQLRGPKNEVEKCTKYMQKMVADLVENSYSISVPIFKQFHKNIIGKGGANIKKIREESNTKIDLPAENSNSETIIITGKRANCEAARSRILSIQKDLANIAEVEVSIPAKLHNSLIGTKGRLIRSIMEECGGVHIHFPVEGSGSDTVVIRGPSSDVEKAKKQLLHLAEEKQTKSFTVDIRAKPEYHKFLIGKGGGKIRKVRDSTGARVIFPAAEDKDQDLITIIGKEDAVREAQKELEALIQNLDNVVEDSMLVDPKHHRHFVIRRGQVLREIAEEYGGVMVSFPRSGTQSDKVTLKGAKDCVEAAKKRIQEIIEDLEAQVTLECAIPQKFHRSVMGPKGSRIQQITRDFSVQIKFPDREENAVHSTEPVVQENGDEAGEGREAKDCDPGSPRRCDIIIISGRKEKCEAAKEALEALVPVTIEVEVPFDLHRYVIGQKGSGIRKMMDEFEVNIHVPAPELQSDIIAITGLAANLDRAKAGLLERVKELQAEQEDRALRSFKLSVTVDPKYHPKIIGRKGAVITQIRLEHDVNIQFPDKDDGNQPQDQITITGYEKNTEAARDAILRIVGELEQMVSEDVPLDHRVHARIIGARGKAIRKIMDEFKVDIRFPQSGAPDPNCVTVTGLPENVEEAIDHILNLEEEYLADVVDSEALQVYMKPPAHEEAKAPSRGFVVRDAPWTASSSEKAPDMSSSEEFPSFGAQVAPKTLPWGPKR
UniProt Q01082, whole entry, looked up: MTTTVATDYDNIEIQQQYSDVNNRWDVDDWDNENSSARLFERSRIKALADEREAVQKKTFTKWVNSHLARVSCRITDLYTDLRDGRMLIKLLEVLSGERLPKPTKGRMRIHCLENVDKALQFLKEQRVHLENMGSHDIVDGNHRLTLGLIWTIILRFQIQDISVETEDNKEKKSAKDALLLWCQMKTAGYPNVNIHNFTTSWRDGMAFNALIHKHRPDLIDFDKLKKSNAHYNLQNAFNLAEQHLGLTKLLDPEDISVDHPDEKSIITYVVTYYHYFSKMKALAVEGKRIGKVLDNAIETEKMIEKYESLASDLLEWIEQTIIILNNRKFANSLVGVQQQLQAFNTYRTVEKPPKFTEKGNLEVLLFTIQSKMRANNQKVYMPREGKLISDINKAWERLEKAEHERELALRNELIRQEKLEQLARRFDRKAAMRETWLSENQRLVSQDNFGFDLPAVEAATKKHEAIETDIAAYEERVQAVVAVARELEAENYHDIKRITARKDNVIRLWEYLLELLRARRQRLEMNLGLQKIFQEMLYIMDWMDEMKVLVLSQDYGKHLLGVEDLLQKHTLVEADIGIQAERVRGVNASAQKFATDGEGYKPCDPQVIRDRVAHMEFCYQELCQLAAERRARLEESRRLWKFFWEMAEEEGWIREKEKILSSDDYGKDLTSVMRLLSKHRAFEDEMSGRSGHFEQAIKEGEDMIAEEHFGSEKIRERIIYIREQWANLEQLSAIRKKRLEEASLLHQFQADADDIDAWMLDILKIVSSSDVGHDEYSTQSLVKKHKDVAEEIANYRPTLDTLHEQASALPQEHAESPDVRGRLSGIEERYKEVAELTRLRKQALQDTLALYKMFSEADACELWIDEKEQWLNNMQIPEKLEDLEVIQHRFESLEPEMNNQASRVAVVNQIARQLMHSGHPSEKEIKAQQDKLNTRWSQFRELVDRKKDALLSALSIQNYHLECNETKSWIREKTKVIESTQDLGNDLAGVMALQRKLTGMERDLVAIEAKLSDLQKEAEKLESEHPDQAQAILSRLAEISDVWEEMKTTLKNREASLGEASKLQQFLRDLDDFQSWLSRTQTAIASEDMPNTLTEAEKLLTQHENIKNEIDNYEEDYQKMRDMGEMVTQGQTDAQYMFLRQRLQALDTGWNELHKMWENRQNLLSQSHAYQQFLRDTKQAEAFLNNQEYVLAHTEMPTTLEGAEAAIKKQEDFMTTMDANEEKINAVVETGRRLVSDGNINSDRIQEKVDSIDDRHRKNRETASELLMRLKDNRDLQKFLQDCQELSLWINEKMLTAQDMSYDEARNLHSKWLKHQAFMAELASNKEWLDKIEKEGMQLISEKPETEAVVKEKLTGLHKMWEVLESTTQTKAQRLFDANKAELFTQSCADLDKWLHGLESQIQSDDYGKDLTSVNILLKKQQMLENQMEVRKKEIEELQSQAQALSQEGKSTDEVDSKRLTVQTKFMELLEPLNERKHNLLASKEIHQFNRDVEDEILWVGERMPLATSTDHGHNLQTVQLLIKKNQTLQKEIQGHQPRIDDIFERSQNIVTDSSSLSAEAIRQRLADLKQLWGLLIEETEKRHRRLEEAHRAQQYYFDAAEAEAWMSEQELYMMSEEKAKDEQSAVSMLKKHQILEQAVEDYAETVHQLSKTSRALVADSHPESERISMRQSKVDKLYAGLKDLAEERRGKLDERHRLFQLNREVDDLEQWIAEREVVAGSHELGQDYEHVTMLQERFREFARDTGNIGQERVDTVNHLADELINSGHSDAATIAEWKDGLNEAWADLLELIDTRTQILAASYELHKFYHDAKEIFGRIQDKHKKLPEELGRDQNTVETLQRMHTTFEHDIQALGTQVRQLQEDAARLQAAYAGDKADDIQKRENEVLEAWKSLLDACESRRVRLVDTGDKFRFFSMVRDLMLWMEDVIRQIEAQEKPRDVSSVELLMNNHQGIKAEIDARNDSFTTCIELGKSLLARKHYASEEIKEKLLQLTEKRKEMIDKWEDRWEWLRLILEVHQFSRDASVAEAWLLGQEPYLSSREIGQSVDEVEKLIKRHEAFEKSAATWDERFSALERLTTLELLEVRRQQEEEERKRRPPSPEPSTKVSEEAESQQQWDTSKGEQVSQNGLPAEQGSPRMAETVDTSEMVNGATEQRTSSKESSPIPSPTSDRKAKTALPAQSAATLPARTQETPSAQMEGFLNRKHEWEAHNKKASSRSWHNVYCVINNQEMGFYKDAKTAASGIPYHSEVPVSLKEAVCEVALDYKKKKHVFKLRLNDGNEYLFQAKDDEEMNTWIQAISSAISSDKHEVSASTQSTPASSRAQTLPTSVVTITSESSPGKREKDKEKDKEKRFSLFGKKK
UniProt P62993, whole entry, looked up: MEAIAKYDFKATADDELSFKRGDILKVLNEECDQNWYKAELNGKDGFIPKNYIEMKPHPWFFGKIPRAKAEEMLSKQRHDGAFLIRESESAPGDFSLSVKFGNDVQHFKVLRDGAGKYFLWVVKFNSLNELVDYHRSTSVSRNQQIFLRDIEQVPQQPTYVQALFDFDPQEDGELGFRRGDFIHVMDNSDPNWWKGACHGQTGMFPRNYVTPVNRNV
UniProt Q01844: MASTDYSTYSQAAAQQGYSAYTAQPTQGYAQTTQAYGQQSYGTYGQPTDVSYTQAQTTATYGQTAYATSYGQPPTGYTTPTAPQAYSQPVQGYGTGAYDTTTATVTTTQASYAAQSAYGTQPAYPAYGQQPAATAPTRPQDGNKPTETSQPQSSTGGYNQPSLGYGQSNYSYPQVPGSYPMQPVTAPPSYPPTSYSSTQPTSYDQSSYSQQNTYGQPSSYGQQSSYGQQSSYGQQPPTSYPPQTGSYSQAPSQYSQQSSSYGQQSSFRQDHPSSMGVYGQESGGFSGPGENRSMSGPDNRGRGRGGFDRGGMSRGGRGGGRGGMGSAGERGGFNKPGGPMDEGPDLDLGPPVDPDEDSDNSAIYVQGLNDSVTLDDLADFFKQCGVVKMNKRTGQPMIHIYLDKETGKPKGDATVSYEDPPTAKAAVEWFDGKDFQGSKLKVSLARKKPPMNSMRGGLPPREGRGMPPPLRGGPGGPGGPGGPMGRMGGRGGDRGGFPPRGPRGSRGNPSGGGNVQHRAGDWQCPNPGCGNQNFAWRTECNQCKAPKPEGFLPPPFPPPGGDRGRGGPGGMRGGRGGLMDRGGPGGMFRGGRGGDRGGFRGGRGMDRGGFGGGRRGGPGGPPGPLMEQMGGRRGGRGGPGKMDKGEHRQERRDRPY

The list shows a part of the results, in another mix than the full data.

Compound in the assay: COC(=O)C#Cc1ccccc1 [methyl 3-phenylpropiolate]
Put plainly: log2 ratio of iodoacetamide-alkyne labeling of the cysteine site, DMSO over compound (competition); higher = stronger covalent engagement of the cysteine by the compound, active = 1 or more. As to conditions: 500 µM; treatment time 1 h; system: HEK293T cell lysate. In a few lines: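 For each cysteine, the log2 competition ratio is mean control-channel reporter intensity over mean compound-channel reporter intensity. HEK293T lysate (2 mg/mL) was exposed to vehicle or electrophile (500 µM, 1 h, ambient temperature), labelled with iodoacetamide alkyne (1 h), clicked to sCIP-TMT reagents, digested overnight with trypsin at 37 °C, streptavidin-enriched and analysed by Orbitrap Eclipse LC-MS/MS with FAIMS and FragPipe. Cysteines quantified in only one of three replicates, each with duplicate channels, were excluded.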
Regarding HNRNPU C594 (UniProt Q00839), the “log2 ratio of iodoacetamide-alkyne labeling” value (from here on “log2 ratio”) is inactive: 0.152.

As to UniProt P78368_C54, the “log2 ratio” value is inactive: 0.0685.

In the case of HNRNPU C497 (UniProt Q00839), the “log2 ratio” value was inactive: 0.211.

For the target UniProt Q00341_C878, the “log2 ratio” value is inactive: 0.339.

With CLTC C934 (UniProt Q00610), the “log2 ratio” value is inactive: 0.162.

With SPTBN1 C1284 (UniProt Q01082), the “log2 ratio” value was inactive: -0.0598.

For UniProt P62263_C31, the “log2 ratio” value was inactive: -0.0715.

Regarding SPTBN1 C604 (UniProt Q01082), the “log2 ratio” value was inactive: 0.364.

For the target GRB2 C32 (UniProt P62993), the “log2 ratio” value was inactive: 0.167.

For the target EWSR1 C529 (UniProt Q01844), the “log2 ratio” value is inactive: -0.0982.

Turning to UniProt P62910_C96, the “log2 ratio” value is inactive: 0.338.

With RPL10A C66 (UniProt P62906), the “log2 ratio” value was inactive: -0.0142.

Turning to RPS21 C56 (UniProt P63220), the “log2 ratio” value was inactive: 0.636.

Turning to HNRNPU C453 (UniProt Q00839), the “log2 ratio” value was inactive: -0.0372.

As for RPS27A C121 (UniProt P62979), the “log2 ratio” value was inactive: 0.164.
